Reference: publication PMC5605996
Results are given in words; binding and its absence hold for the method and conditions named. Binding seen in cells or lysates may run through a third protein. Binding calls can cover weak binding; strength is not graded here.

target: GST fusion of the SET domain of Trithorax, GST-TrxSET (Drosophila); assay: pull-down; 1 μg GST-E(z)SET or GST-TrxSET immobilised on GSH-agarose, mixed 2 h at 4 °C with pre-cleared reticulocyte lysate holding 35S-Asx or its deletion fragments; washes with 0.6 M NaCl, pH 7.9; SDS-PAGE and autoradiography, densitometry relative to GST; only the target purified

Row | Binder | binding
1 | Asx COOH terminal residues 1200-1501, E(z)/Trx SET domain interaction site 2 (AsxETSI-2), 35S-labelled, in vitro translated (domain or fragment, UniProt Q9V727 1200-1501, 35S-methionine labelled) MQQLPNVLTMKTLPPSGVPTTIAQQRLQPKMPTGKGRKATSNRLPPGAVNLERSYQICQAVIQNSPNRENLKAQLRPPAAILNQHQPTTTTAPAPINPVTLNVSTVAATPMSNITTATGSMAAAVAAAPPQNVLKQEELLVSGAVGAGALPAGLPPNVMGVGRPGVYKVIGPRMSGFPRKKYVQRKPSPTTLIRHVFSPGPGGATATAQQLQMLQQHHQSTTSPVPVQNPQQPAPEQLIHQNGNGQYVLVHRANVGAADNQAPRASSAPPMHQNQFVTVQNPLHSINGIPMGGRGRPASVDT | binds
2 | Asx COOH terminal deletion mutant A(1-1200), 35S-labelled, in vitro translated (domain or fragment, UniProt Q9V727 1-1200, 35S-methionine labelled) MKTITPDTTTTTSSQHQQLLIPQADQHHQPMLQQQSLLAAPPPTMIMEHVNLVDDDEKDPLALEQLEVSPSTKHTHSLRRHLPRIIVKPIPPEKKPMAPSEEAAVSTAPAPPTRLICSRRIQQQQQVKAAAAAAAAAAAAAAAAAAAAQAQATSSYPSAISPGSKAGTSQASTMREVLASIPGFSVKPRRRSNKKLTTAAQIEQTKDGKIDLETPDSILASTNLRALLNKQTFSLLPPLYQYNLIQLLPSVDREASELEQPSSSASGGSPSEAIRLSASCLNNEFFARACLEWRERLSEGEFTPENQLKLKTEAEREKNKLDPWKLKHFEPFWGEKNSRGKDKDKLESDCKNQKLSASIKSEPKPPATSQQKPLQQATCDNETELKFDLSTKCETTSAKTTVAVAVADKSSTFPPTGSQNNVLNEQQRRVLKRPSSSPSQRKQAPTTIATINLDDDLDELPSTSKDSKQPKMDEIVPNASGNVVAAPMVDVVDHSAVEMKIKDEQQHQRQHQPLINSTCDKIEPSECSKEMIVAMKQVDSKEDVDSIASAAAMPAIAAVTPHTPKPEALAPNPDVANQFVSYLQNVELAAETKAPLDNSNEADITTGTNSHDFVFSDTIDHAYFQEHQSTINHNFFTSSSSSNTATTAANKLEEHSDKPEDSPLPIASSISGSTPASSITSTSCTSSSSSSASMSSSCSSSNSGSTTTAPTTSSSAGAPTAPLTLAAAAETTLANVQAMLSTVAKLQQQQQELPVELNSNEMYQHVQHDWNFGDIKLSSSQSSGDQQRNLSHEAIDLMDVVQDADVIDDIMHNDVCHDVLGDEDEGDQEEDEDDEVVECMTEEQQLIDEDSEAVREIVDKLQQHQQQQNQQQHHQQLHIQDVVQLAQHSFMPQAHSEFGNDIGQEMLCDAVPMSAAEMEVSSTVITNSSNSNDSSNNISLCSSTNSLTINQMPHQASQQPQQNAQSNAQQQRQILVDSNGQIIGNFLLQQQRQQQQQQLLQQFTLQAAAAQQQQQQQQQHQQQQQQQQQATSSNSLGKTLPVALRNGTQQFLSPNLIAQQHQQQQQQQLEQHQQQATAQQKHQQIQQFALQQAQLHQRQLLAQAANNNLLQQQQQQQQNVALPTTQAKFIAKPLNIISMTRPANASPTTAATTANTASIPSAYANVVAVTGAQQQQSPPVPAPQQQTVQQQQLANHNSNM | no binding
3 | Asx COOH terminal residues 1501-1669, Trx SET domain interaction site (AsxTSI), 35S-labelled, in vitro translated (domain or fragment, UniProt Q9V727 1501-1669, 35S-methionine labelled) TTAGSGNVIAPPISATDALHHHHHEMQQQQQHQQPQPLGNVGAAANIVRRNIAAGPNIAYIDGSNTNSSAVALMEAGNNYIVTTNASPTAAPSPINQQPQSQPTGTQHQHPLLQLHQTGENTPPGNEATATANNCACSLNAMVICQQCGAFCHDDCIGAAKLCVACVIR | binds weakly

Other lines, results leading:

Row | binding | Binder
4 | no binding | Asx deletion fragment A(200-354), 35S-labelled, in vitro translated (domain or fragment, UniProt Q9V727 200-354, 35S-methionine labelled) AQIEQTKDGKIDLETPDSILASTNLRALLNKQTFSLLPPLYQYNLIQLLPSVDREASELEQPSSSASGGSPSEAIRLSASCLNNEFFARACLEWRERLSEGEFTPENQLKLKTEAEREKNKLDPWKLKHFEPFWGEKNSRGKDKDKLESDCKNQK
5 | no binding | Asx deletion fragment A(1-200), 35S-labelled, in vitro translated (domain or fragment, UniProt Q9V727 1-200, 35S-methionine labelled) MKTITPDTTTTTSSQHQQLLIPQADQHHQPMLQQQSLLAAPPPTMIMEHVNLVDDDEKDPLALEQLEVSPSTKHTHSLRRHLPRIIVKPIPPEKKPMAPSEEAAVSTAPAPPTRLICSRRIQQQQQVKAAAAAAAAAAAAAAAAAAAAQAQATSSYPSAISPGSKAGTSQASTMREVLASIPGFSVKPRRRSNKKLTTAA
6 | no binding | Asx deletion fragment A(1381-1501), 35S-labelled, in vitro translated (domain or fragment, UniProt Q9V727 1381-1501, 35S-methionine labelled) YVQRKPSPTTLIRHVFSPGPGGATATAQQLQMLQQHHQSTTSPVPVQNPQQPAPEQLIHQNGNGQYVLVHRANVGAADNQAPRASSAPPMHQNQFVTVQNPLHSINGIPMGGRGRPASVDT
